Assays:
[1] = Stabilization of polypropylene films, Xenon Arc Weatherometer; conditions: 0.5 % stabilizer in 0.5 mil polypropylene film
[2] = Stabilization of polycarbonate plaques, Xenon Arc Weatherometer ASTM G-26, time to ΔYI = 5; conditions: level 0.35 %; hours of exposure for an increase in 5 Yellowness Index units
[3] = Stabilization of polycarbonate plaques, Xenon Arc Weatherometer ASTM G-26, time to YI = 14; conditions: level 0.35 %, 0.1% Mark 2112 phosphite; hours of exposure for Yellowness Index to reach 14 units
[4] = Xenon weathering (SAE J1960 automotive exterior) of acrylic melamine coating; conditions: UV absorber 2% on total resin solids
[5] = Stabilization of a multilayer polycarbonate article, xenon-arc weatherometer ASTM G-26; conditions: level 7.0 (wt. %) in 2 mil polycarbonate film laminated on unstabilized plaque

Row | SMILES | Time to ΔYI = 5 [2] [h] | Time to Y1 = 14 [3] [h] | Time to YI = 9 [5] | further results
1 | CC(C)(C)CC(C)(C)c1cc(-c2cc(C(C)(C)CC(C)(C)C)cc(-n3nc4ccccc4n3)c2O)c(O)c(-n2nc3ccccc3n2)c1 [COMPOUND 1, 3,3′-bis-(2H-benzotriazol-2-yl)-5,5′-di-tert-octyl-1,1′-biphenyl-2,2′-diol] | 1014 | 1435 | 1765 | Complete Loss of Physical Properties ([1]; cracking upon flexing): 1030 h; 0.5 Carbonyl Change ([1]; time for 0.5 change in carbonyl absorption at 1715 cm-1): 900 h; percent gloss retention ([4]; 999 hours exposure): 96%; percent gloss retention ([4]; 1995 hours exposure): 91%; percent gloss retention ([4]; 3900 hours exposure): 54%; percent gloss retention ([4]; 4383 hours exposure): 50%; percent gloss retention ([4]; 4838 hours exposure): 38%
2 | Cc1cc(-c2cc(C)cc(-n3nc4ccccc4n3)c2O)c(O)c(-n2nc3ccccc3n2)c1 [COMPOUND 4, 3,3′-bis-(2H-benzotriazol-2-yl)-5,5′-di-methyl-1,1′-biphenyl-2,2′-diol] | – | 1430 | – | –
3 | Oc1c(-c2cccc(-n3nc4ccccc4n3)c2O)cccc1-n1nc2ccccc2n1 [COMPOUND 5, 3,3′-bis-(2H-benzotriazol-2-yl)-1,1′-biphenyl-2,2′-diol] | 1271 | 1554 | 2205 | –
4 | CC(C)(C)c1cc(-n2nc3ccc(Cl)cc3n2)c(O)c(C(C)(C)C)c1 [Eversorb ® 75, 2-(2H-6-Chlorobenzotriazol-2-yl)-4,6-di-tert-butylphenol] | 1121 | – | – | –
5 | CC(C)(C)CC(C)(C)c1cc(Cc2cc(C(C)(C)CC(C)(C)C)cc(-n3nc4ccccc4n3)c2O)c(O)c(-n2nc3ccccc3n2)c1 [LA-31 ®, 2,2′-Methylenedi [Bis-2-benzotriazolyl)-4-tert-octylphenol, reference compound] | – | 1345 | 1510 | –
6 | CC(C)(C)CC(C)(C)c1cc(Cc2cc(C(C)(C)CC(C)(C)C)cc(-n3nc4ccccc4n3)c2O)c(O)c(-n2nc3ccccc3n2)c1 [MIXXIM BB/100®, 2,2′-methylenedi{6-(2-benzotriazolyl)-4-tert-octyl-phenol}, reference compound] | 1015 | – | – | –
7 | CCC(C)(C)c1cc(-n2nc3ccccc3n2)c(O)c(C(C)(C)CC)c1 [Tinuvin ® 328, reference compound] | – | – | – | percent gloss retention ([4]; 999 hours exposure): 93%; percent gloss retention ([4]; 1995 hours exposure): 86%; percent gloss retention ([4]; 3900 hours exposure): 43%; percent gloss retention ([4]; 4383 hours exposure): 24%; percent gloss retention ([4]; 4838 hours exposure): 23%
8 | CC(C)(c1ccccc1)c1cc(-n2nc3ccccc3n2)c(O)c(C(C)(C)c2ccccc2)c1 [Tinuvin ®-234, 2-(2H-Benzotriazol-2yl)-4,6-bis (α,α-dimethylbenzyl) phenol] | 1023 | 1420 | – | –
9 | CC(C)(C)CC(C)(C)c1ccc(O)c(-n2nc3ccccc3n2)c1 [UV-5411, 2-(2H-benzotriazol-2-yl)-4-tert-octyl-phenol, reference compound] | 1170 | 1592 | >2500 | –
